Results are given in words; binding and its absence hold for the method and conditions named. For some of these results: In cells and extracts the contact can be indirect. Some results given as binding are weak or reduced against the parent protein; the word gives no strength. Sequences can lack the tags named with a protein.
How the values were obtained:
[1] = target: T1, HA-tagged Pol31 (pol31-HA) (S. cerevisiae) (UniProt P46957); experiment: co-IP; triply-tagged strains with POL3-MYC (wild-type POL3 background); mid-log cells; HA-tagged Pol31 immunoprecipitated with anti-HA antibodies; Western blot with anti-Myc for Pol3 and Rev3 (Figure 6A)
T1 sequence: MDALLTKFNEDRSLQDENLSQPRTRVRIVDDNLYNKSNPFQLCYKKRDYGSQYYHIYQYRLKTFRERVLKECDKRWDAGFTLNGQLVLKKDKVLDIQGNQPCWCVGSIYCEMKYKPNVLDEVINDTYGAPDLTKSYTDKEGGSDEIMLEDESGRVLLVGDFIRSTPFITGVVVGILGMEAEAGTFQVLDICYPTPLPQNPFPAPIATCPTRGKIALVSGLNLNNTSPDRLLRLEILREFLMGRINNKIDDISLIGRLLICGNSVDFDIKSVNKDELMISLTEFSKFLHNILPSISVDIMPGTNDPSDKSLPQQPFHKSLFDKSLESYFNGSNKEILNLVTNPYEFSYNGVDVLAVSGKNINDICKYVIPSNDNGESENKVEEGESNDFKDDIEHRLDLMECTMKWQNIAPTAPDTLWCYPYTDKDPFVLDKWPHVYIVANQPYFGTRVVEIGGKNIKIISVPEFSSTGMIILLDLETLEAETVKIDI

The chains behind the UniProt entries cited, without tags or fusion partners.
UniProt P14284: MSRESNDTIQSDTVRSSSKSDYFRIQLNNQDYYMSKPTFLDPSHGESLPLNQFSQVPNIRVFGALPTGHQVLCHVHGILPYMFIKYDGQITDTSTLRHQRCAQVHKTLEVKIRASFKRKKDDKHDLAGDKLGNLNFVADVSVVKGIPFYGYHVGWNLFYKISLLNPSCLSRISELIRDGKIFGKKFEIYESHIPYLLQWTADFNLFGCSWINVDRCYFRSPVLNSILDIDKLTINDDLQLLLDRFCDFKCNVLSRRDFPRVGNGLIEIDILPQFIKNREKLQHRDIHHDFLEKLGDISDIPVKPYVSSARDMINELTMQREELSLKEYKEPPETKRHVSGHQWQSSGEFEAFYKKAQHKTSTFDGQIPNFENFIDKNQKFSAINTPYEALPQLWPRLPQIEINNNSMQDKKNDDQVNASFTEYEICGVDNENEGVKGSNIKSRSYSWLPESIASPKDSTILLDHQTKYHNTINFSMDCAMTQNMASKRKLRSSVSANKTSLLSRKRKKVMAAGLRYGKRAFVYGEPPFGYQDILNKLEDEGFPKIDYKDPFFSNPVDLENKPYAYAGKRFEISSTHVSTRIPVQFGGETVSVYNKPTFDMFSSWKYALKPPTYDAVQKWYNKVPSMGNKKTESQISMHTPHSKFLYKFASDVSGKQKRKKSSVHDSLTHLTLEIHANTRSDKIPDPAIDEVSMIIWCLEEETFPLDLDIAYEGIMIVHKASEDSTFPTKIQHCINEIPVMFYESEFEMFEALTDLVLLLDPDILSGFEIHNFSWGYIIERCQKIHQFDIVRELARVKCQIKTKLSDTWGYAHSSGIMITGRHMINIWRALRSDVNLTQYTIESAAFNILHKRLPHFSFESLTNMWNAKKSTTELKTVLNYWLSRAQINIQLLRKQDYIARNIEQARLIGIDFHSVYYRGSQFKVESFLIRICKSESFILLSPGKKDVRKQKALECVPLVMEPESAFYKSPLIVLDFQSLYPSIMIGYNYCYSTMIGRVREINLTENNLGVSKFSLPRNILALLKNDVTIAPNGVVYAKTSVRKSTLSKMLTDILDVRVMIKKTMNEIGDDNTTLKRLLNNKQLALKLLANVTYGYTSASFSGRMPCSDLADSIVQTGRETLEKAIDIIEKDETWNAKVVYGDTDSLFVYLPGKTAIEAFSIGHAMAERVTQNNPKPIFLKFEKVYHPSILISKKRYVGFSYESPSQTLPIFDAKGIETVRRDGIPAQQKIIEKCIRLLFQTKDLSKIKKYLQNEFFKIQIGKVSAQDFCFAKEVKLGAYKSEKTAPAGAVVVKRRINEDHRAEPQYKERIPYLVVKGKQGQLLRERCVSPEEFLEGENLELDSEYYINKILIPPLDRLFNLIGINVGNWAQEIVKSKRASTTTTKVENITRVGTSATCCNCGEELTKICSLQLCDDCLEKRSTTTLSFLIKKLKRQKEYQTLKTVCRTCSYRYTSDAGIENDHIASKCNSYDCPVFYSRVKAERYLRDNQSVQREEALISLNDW

[2] = target: T2, HA-tagged Pol31-K358E (pol31-K358E-HA) (S. cerevisiae) (UniProt P46957); experiment: as above
T2 sequence: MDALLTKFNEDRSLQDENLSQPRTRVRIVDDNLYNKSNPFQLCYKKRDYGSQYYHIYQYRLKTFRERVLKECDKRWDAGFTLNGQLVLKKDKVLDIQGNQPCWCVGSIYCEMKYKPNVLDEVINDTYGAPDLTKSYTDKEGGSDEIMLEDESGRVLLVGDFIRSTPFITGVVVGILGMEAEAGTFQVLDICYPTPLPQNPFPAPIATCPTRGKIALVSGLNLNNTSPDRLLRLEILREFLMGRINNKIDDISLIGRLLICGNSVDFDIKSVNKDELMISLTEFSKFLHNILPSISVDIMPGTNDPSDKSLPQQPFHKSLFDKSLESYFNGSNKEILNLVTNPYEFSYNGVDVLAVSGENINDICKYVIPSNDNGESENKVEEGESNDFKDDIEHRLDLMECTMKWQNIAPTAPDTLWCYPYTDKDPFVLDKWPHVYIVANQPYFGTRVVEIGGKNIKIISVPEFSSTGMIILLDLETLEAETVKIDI

[3] = target: T1, HA-tagged Pol31 (pol31-HA) (S. cerevisiae); experiment: co-IP; triply-tagged strains with pol3-01-MYC (pol3-01 background); mid-log cells; HA-tagged Pol31 immunoprecipitated with anti-HA antibodies; Western blot with anti-Myc for Pol3-01 and Rev3 (Figure 6A)
[4] = target: T2, HA-tagged Pol31-K358E (pol31-K358E-HA) (S. cerevisiae); experiment: as above
[5] = target: T3, Pol3-01 fused to the GAL4 DNA binding domain (pGBKT7 pol3-01) (S. cerevisiae) (UniProt P15436); experiment: two-hybrid; strain PJ69-4a; POL30 fused to the GAL4-activating domain (pACT2), POL3 alleles fused to the GAL4 DNA binding domain (pGBKT7); spotted on SD-Trp-Leu and SD-Trp-Leu-His plates, 3-4 days at 30 °C
T3 sequence: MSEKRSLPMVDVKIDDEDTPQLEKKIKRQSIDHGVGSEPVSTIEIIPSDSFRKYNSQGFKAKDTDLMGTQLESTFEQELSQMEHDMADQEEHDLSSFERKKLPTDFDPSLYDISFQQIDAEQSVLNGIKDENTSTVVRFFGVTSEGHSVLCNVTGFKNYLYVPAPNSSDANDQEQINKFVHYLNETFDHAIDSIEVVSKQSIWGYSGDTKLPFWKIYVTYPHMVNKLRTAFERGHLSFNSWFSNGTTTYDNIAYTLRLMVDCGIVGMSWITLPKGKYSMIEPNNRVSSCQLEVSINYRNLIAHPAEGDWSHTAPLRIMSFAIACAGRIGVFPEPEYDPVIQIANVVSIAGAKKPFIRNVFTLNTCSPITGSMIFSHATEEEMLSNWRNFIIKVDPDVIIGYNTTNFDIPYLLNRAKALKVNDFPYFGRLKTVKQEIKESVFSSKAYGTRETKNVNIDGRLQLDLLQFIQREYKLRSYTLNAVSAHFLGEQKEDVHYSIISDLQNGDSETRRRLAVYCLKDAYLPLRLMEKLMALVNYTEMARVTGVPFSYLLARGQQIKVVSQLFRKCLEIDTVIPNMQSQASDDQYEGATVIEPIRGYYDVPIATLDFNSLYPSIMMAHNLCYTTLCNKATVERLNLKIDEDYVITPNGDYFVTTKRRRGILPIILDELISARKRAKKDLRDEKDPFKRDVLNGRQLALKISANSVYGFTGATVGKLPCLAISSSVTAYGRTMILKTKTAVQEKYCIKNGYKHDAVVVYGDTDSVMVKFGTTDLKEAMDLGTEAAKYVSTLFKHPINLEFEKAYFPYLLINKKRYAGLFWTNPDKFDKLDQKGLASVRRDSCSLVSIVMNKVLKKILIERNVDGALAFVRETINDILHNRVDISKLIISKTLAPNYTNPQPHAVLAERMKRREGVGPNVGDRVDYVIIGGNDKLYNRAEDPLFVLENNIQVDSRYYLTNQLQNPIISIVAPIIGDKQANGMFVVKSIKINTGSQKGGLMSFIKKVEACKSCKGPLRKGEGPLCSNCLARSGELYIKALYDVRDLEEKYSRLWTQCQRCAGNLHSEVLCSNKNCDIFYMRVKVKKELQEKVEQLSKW

[6] = target: T4, Pol3 fused to the GAL4 DNA binding domain (pGBKT7 POL3) (S. cerevisiae), P15436; experiment: as above; settings: remark: other sources report otherwise
T4 chain: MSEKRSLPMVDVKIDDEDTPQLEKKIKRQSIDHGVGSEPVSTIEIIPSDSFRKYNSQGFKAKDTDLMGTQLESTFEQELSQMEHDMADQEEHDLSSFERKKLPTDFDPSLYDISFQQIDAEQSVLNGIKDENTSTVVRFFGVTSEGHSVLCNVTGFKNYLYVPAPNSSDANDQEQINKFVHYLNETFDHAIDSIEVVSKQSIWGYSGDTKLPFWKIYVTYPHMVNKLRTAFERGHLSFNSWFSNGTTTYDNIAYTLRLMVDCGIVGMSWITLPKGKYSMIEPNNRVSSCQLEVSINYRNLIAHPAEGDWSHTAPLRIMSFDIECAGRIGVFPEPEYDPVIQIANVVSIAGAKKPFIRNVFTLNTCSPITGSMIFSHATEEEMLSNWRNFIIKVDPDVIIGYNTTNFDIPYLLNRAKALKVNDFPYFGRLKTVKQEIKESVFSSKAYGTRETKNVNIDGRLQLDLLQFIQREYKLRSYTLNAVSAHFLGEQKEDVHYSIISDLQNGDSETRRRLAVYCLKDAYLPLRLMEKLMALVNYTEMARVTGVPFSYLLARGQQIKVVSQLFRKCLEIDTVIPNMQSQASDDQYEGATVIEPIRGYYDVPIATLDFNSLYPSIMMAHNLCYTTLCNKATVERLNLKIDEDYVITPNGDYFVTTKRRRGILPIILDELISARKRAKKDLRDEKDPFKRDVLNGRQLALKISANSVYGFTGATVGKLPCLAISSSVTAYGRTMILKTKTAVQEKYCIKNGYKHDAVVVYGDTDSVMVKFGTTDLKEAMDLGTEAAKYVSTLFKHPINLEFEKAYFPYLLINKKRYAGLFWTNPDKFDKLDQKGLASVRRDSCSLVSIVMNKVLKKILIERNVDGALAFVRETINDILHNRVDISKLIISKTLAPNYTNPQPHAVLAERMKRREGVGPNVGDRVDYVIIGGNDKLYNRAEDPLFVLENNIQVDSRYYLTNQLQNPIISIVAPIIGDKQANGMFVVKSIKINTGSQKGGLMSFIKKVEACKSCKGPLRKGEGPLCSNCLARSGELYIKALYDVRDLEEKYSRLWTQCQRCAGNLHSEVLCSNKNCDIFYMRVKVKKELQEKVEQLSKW

[7] = target: T5, PCNA (Pol30) immunoprecipitated in the co-IP of Figure 2C (S. cerevisiae), P15873; experiment: co-IP; PCNA immunoprecipitated from yeast extract (methods: 2 μg anti-PCNA antibody, overnight at 4 °C, washes with lysis buffer at 220 mM NaCl); level of FLAG-tagged Pol3 or Pol3-01 co-IPed measured (Figure 2C); settings: remark: other sources report otherwise
T5 chain: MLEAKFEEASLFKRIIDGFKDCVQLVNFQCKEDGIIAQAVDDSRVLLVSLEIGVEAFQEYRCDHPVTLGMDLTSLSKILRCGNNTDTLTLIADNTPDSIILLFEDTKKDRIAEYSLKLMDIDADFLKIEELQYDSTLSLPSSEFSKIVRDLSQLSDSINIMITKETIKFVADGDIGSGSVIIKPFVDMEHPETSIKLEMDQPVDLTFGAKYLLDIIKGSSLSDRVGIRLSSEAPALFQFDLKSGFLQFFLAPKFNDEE

Myc-tagged Rev3 (REV3-MYC) (from UniProt P14284 1-1504)
binding [1]: binds weakly | binding [2]: binds | binding [3]: binds | binding [4]: binds

Pol30 (PCNA) fused to the GAL4 activating domain (pACT2 carrying POL30) (from UniProt P15873 1-258)
binding [5]: binds weakly

B1: Pol30 (PCNA) fused to the GAL4 activating domain (pACT2 carrying POL30), P15873 1-258 (protein)
chain: MLEAKFEEASLFKRIIDGFKDCVQLVNFQCKEDGIIAQAVDDSRVLLVSLEIGVEAFQEYRCDHPVTLGMDLTSLSKILRCGNNTDTLTLIADNTPDSIILLFEDTKKDRIAEYSLKLMDIDADFLKIEELQYDSTLSLPSSEFSKIVRDLSQLSDSINIMITKETIKFVADGDIGSGSVIIKPFVDMEHPETSIKLEMDQPVDLTFGAKYLLDIIKGSSLSDRVGIRLSSEAPALFQFDLKSGFLQFFLAPKFNDEE
binding [6]: binds

B2: FLAG-tagged Pol3 (Pol3-FLAG) of the co-IP of Figure 2C, P15436 1-1097 (protein)
chain: MSEKRSLPMVDVKIDDEDTPQLEKKIKRQSIDHGVGSEPVSTIEIIPSDSFRKYNSQGFKAKDTDLMGTQLESTFEQELSQMEHDMADQEEHDLSSFERKKLPTDFDPSLYDISFQQIDAEQSVLNGIKDENTSTVVRFFGVTSEGHSVLCNVTGFKNYLYVPAPNSSDANDQEQINKFVHYLNETFDHAIDSIEVVSKQSIWGYSGDTKLPFWKIYVTYPHMVNKLRTAFERGHLSFNSWFSNGTTTYDNIAYTLRLMVDCGIVGMSWITLPKGKYSMIEPNNRVSSCQLEVSINYRNLIAHPAEGDWSHTAPLRIMSFDIECAGRIGVFPEPEYDPVIQIANVVSIAGAKKPFIRNVFTLNTCSPITGSMIFSHATEEEMLSNWRNFIIKVDPDVIIGYNTTNFDIPYLLNRAKALKVNDFPYFGRLKTVKQEIKESVFSSKAYGTRETKNVNIDGRLQLDLLQFIQREYKLRSYTLNAVSAHFLGEQKEDVHYSIISDLQNGDSETRRRLAVYCLKDAYLPLRLMEKLMALVNYTEMARVTGVPFSYLLARGQQIKVVSQLFRKCLEIDTVIPNMQSQASDDQYEGATVIEPIRGYYDVPIATLDFNSLYPSIMMAHNLCYTTLCNKATVERLNLKIDEDYVITPNGDYFVTTKRRRGILPIILDELISARKRAKKDLRDEKDPFKRDVLNGRQLALKISANSVYGFTGATVGKLPCLAISSSVTAYGRTMILKTKTAVQEKYCIKNGYKHDAVVVYGDTDSVMVKFGTTDLKEAMDLGTEAAKYVSTLFKHPINLEFEKAYFPYLLINKKRYAGLFWTNPDKFDKLDQKGLASVRRDSCSLVSIVMNKVLKKILIERNVDGALAFVRETINDILHNRVDISKLIISKTLAPNYTNPQPHAVLAERMKRREGVGPNVGDRVDYVIIGGNDKLYNRAEDPLFVLENNIQVDSRYYLTNQLQNPIISIVAPIIGDKQANGMFVVKSIKINTGSQKGGLMSFIKKVEACKSCKGPLRKGEGPLCSNCLARSGELYIKALYDVRDLEEKYSRLWTQCQRCAGNLHSEVLCSNKNCDIFYMRVKVKKELQEKVEQLSKW
binding [7]: binds
